Data as given in PMC10462243.

Amino acid sequences for entries named in this document (tags omitted).
UniProt Q16531: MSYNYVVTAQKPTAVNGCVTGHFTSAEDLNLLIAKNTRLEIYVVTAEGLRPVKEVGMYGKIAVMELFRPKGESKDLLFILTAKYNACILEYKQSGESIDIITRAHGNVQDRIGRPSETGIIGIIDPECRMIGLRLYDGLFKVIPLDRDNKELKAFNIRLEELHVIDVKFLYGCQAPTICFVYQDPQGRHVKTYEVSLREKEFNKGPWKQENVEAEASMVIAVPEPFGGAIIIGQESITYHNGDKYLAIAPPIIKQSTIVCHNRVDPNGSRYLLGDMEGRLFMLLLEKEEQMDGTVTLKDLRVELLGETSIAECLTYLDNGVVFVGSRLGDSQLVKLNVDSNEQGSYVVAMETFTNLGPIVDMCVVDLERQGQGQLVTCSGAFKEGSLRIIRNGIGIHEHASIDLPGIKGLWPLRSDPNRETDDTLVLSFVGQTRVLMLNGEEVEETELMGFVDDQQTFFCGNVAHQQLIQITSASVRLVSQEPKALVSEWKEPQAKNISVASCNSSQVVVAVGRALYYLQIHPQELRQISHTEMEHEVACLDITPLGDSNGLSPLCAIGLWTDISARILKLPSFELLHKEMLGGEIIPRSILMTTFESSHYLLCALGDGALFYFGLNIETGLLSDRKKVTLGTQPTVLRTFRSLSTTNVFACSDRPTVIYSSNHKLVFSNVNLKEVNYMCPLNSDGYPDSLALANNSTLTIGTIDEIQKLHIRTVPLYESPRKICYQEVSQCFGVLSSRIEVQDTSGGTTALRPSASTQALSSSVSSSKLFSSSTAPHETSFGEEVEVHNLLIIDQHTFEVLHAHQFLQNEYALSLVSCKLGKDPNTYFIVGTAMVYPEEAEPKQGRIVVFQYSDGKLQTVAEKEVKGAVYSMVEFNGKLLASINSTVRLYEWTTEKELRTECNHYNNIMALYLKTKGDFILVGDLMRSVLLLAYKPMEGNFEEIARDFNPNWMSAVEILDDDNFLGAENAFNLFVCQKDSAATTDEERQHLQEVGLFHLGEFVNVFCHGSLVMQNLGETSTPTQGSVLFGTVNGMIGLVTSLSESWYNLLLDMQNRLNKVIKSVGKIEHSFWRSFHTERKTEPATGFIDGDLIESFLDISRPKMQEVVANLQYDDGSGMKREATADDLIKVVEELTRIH
UniProt O94986: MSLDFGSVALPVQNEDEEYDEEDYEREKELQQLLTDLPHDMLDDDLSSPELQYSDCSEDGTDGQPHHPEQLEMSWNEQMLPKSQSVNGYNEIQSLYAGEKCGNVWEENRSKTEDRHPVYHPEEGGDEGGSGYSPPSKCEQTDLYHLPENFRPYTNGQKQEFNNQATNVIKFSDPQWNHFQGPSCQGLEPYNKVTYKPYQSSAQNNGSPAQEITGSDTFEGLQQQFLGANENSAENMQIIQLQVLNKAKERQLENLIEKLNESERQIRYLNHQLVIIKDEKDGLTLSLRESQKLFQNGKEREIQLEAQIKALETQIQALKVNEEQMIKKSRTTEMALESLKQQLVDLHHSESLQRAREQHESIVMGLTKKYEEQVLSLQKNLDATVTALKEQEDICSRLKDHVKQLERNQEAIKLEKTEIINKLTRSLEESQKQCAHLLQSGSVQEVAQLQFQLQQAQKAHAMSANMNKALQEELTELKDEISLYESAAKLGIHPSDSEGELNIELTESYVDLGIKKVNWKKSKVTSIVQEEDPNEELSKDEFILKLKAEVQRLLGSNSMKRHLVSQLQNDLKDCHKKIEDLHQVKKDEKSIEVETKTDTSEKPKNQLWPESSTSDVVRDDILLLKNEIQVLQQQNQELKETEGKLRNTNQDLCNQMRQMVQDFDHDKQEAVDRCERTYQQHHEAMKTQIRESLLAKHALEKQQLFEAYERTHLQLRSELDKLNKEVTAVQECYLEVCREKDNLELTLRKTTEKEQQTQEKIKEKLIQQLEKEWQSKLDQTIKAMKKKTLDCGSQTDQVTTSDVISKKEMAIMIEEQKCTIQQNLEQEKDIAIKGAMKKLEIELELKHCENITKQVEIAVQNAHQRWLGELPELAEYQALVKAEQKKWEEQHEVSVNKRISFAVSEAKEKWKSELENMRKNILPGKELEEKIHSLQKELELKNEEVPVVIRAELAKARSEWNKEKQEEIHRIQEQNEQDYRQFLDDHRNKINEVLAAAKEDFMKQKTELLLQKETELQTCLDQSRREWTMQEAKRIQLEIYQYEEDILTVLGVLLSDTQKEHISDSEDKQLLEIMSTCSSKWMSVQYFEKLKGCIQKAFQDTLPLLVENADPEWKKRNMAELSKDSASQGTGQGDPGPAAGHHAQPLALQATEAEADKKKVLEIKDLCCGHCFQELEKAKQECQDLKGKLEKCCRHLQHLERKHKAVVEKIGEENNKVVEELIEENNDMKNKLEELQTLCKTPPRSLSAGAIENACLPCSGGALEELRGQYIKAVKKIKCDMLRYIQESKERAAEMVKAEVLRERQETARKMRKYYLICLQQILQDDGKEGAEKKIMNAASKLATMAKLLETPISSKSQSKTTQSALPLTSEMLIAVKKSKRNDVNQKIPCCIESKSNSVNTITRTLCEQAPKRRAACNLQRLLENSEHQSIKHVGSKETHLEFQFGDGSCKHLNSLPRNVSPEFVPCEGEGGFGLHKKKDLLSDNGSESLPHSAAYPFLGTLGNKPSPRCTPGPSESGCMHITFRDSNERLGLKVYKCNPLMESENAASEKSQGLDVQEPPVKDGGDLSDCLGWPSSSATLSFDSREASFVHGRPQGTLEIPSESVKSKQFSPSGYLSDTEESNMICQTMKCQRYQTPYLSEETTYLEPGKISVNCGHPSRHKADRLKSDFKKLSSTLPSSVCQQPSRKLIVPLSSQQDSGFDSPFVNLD
UniProt Q13619: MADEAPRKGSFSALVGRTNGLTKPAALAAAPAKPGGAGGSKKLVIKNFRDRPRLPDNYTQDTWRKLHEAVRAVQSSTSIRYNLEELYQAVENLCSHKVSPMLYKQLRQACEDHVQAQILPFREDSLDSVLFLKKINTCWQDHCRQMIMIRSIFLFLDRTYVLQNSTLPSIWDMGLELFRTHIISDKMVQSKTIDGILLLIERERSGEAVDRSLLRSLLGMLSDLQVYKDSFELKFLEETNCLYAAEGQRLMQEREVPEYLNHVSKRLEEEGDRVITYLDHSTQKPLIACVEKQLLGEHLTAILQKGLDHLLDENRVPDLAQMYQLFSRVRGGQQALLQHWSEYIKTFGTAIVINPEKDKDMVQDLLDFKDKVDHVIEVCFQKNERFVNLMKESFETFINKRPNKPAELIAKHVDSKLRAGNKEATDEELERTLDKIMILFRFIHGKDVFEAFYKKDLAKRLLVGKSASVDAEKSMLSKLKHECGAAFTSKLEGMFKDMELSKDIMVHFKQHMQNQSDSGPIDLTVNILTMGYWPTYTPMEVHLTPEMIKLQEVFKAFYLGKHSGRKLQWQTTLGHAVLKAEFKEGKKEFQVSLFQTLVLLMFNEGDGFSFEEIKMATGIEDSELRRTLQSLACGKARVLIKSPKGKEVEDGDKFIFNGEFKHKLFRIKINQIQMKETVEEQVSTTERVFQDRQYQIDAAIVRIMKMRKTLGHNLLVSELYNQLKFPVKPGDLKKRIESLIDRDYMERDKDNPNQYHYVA
UniProt Q13620: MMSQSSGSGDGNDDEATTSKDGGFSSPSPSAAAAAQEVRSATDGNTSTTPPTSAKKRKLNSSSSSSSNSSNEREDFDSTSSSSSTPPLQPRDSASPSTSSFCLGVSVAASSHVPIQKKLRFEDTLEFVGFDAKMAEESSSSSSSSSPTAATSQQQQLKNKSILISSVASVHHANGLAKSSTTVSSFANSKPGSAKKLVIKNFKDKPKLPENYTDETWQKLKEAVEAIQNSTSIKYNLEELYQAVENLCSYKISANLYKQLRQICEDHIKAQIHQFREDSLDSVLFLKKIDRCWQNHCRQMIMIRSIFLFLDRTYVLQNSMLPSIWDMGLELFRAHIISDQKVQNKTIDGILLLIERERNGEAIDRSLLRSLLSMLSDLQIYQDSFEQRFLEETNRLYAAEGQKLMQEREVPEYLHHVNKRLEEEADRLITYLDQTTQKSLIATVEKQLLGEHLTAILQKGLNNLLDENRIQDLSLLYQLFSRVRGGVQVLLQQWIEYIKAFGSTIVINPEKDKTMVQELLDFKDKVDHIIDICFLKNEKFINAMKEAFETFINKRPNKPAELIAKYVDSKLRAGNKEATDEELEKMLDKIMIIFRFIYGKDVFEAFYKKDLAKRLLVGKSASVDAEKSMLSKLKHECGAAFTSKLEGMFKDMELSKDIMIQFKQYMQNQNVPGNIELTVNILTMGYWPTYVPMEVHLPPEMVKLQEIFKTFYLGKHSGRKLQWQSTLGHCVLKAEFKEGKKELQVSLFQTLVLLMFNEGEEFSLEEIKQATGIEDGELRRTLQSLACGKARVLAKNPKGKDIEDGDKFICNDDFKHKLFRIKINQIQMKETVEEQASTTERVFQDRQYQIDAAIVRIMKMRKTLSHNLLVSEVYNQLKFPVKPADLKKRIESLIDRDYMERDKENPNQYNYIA
UniProt Q9Y4B6: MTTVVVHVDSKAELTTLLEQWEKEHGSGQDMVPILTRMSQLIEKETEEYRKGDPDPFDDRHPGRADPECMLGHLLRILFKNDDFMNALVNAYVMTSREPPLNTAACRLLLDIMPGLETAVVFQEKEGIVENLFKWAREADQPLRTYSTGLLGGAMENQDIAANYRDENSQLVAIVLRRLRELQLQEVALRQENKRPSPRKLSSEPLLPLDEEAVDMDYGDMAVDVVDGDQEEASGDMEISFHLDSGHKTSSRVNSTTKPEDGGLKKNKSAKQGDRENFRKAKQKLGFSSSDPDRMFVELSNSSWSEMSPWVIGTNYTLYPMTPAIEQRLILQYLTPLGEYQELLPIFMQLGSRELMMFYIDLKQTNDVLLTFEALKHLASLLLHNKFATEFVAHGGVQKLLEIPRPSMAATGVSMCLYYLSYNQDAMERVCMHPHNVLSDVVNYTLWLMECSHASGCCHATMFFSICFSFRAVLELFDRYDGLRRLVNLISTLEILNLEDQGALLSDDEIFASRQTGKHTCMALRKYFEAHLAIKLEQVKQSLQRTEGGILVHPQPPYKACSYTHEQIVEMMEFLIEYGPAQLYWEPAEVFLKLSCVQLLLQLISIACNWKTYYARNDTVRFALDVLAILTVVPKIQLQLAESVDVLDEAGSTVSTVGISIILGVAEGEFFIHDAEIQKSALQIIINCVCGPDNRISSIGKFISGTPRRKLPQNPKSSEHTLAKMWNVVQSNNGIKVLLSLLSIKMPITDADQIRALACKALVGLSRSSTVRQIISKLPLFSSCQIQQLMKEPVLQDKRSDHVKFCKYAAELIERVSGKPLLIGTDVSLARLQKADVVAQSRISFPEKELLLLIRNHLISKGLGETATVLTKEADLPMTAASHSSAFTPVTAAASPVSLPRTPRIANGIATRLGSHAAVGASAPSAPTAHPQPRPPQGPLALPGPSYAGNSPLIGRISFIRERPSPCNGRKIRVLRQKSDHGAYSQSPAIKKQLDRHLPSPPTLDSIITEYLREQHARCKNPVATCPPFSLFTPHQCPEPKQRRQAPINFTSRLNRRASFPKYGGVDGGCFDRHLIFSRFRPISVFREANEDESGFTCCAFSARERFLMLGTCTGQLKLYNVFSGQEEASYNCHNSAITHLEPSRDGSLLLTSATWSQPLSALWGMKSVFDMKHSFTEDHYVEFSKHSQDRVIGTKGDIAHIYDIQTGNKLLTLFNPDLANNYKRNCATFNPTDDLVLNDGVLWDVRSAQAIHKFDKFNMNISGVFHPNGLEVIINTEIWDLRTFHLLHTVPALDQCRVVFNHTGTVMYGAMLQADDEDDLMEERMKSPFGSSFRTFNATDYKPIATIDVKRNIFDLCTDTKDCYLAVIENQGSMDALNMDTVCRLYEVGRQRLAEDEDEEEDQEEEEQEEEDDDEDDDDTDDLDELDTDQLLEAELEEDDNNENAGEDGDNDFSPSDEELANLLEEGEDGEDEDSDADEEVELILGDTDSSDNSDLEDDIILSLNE

What was measured:
[1] = target: T1, ZZ-tagged Plk4 CPB (581–884) (UniProt O00444); assay: affinity purification with mass spectrometry; Expt. 1: lysates of HEK293T cells transfected with ZZ-TEV-Plk4 CPB(581–884) on a human IgG column, eluted after AcTEV digestion with TBSN buffer; SDS-PAGE bands, trypsin, nanoLC-tandem MS
T1 sequence: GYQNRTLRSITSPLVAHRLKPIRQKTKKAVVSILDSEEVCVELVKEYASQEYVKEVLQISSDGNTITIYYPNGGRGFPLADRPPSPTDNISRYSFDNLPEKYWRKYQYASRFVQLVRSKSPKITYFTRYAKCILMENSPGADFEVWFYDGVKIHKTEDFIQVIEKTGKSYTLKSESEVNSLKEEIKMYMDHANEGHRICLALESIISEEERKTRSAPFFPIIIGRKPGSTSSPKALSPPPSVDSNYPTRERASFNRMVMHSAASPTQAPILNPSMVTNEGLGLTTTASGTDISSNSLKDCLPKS

[2] = target: T2, FLAG-tagged Plk4 CTD (581–970) (UniProt O00444); assay: affinity purification with mass spectrometry
T2 sequence: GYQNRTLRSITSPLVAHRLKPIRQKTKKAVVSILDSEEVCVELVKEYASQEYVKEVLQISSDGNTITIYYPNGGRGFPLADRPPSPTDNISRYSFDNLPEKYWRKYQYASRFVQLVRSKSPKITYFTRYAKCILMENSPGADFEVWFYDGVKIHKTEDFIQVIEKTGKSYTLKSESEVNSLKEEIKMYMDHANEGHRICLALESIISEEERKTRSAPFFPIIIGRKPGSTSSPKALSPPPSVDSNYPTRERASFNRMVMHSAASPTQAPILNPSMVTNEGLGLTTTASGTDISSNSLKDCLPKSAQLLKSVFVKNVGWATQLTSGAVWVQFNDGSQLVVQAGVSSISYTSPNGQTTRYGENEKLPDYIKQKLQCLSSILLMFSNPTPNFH

For “DDB1 (endogenous, HEK293T) (from UniProt Q16531 1-1140)”, the binding [1] was “binds” and the binding [2] was “binds”.

With “Cep152 (endogenous, HEK293T) (from UniProt O94986 1-1710)” the binding [1] was “binds” and the binding [2] was “binds”.

“CUL4A (endogenous, HEK293T) (from UniProt Q13619 1-759)” was tested, and the binding [1] was “no binding” and the binding [2] was “no binding”.

With “CUL4B (endogenous, HEK293T) (from UniProt Q13620 1-913)” the binding [1] was “no binding” and the binding [2] was “no binding”.

In the case of “VprBP (endogenous, HEK293T) (from UniProt Q9Y4B6 1-1507)”, the binding [1] is reported as “binds” and the binding [2] is reported as “binds”.

No constants are given. Whether binding was seen depends on the method and setting. In cells and extracts the contact can be indirect. A yes stands for co-enrichment or nearness to the bait. Other partners may have been found. No binding means not detected with the bait. Sequences can lack the tags named with a protein.
